Assay results taken from patent publication US8592179 (SCIL PROTEINS, dated 2013).

By UniProt entry, the sequences of proteins in these tests, tags left out. Residues count along the entry.
UniProt P01375, 77-233 limits assumed: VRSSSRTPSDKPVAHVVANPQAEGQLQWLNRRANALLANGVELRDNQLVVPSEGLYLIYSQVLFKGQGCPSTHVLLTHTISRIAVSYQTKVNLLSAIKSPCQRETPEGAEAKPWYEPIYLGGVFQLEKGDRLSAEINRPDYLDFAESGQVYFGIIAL

Target: T1, human TNFα (human, UniProt P01375 77-233)
T1 construct: Coated on ELISA plates at 1 µg/ml; also called tumor necrosis factor alpha
Assay: concentration-dependent ELISA; TNFα coated on plate; 2E11 titrated; anti-FLAG POD detection; sigmoidal fit
Procedure: Specific binding of mutant 2E11 to human TNFα was assayed by a concentration dependant ELISA. Increasing amounts of purified AFFILIN® ubiquitin variant 2E11 were applied to Nunc MEDISORP® plates coated with BSA as controls. Antigen coating with 50 μl (1 μg/ml) per well was performed at 4° C. overnight. After washing the plates with PBS, 0.1% TWEEN® 20, pH 7.4 (PBST), the wells were blocked using blocking solution (PBS pH 7.4; 3% BSA; 0.5% TWEEN® 20) at 37° C. for 2 h. Wells were washed again with PBST. Different concentrations of ubiquitin variant 2E11 in 50 μl were then incubated in the wells at 37° C. for 1 h. After washing the wells with PBST the anti-FLAG POD conjugate (Sigma) was applied in a dilution of 1:2000 in PBST. Substrate reaction and signal read out was done as described in the Hit-ELISA chapter.

Kd: 400 nM
B1: TNFα binding ubiquitin variant 2E11 (designed binder, not shown: small tags and cut ends)
chain: MQIFVKTLTGKTITLEVEPNDLIAPVKWKIIDEEGIPADQQRLIWAGKQLEDWAGLSDYNIQKESTLHLVLRLRGGDYKDDDDKGLEHHHHHH
notes: Human ubiquitin variant selected from the SPA10 helix library by ribosome display against human TNFα; It was produced in E. coli from pET20b(+), purified by Ni-NTA and SEC, and detected through its Flag tag; also called mutant 2E11; AFFILIN ubiquitin variant 2E11
